The exact form of at least one protein or probe is not confirmed.

The target in one data set is Tus-GFP (His6-Tus-LGSGGH-GFPuv) (Escherichia coli) (UniProt P16525). As to the kind of experiment: EMSA. Conditions: complex Tagg 58.7 C, +14.4 C shift; low salt; also confirmed by S method; purified recombinant protein. (In EMSA bound probe runs differently from free probe, usually more slowly.)
Consider “CTTTAGTTACAACATACTTATCCCCGCCCCC / GAAATCAATGTTGTATGAATAGGGGCGGGGG [TerB (GC-extended)]”, for which the binding result was “binds”.

The target in the next data set is Tus (Escherichia coli) (UniProt P16525). Briefly: SPR. To be noted: CITED Mulcair et al. 2006; 250 mM KCl; measured on sequence without GC extension; purified recombinant protein.
Broadly, the Kd is the concentration at which binding is half-saturated. Regarding “CTTTAGTTACAACATACTTATCCCCGCCCCC / GAAATCAATGTTGTATGAATAGGGGCGGGGG [TerB (GC-extended)]”, the Kd amounted to 1.4 nM.

The target in a further data set is Tus-GFP (His6-Tus-LGSGGH-GFPuv) (Escherichia coli) (UniProt P16525). Briefly: activity assay. Conditions: GFP thermal melt, 139.4 mM KCl; no DNA 45.2 C; purified recombinant protein.
With “AACATGGAAGTTGTAACTAACCGGGGGGCGGGG / TTGTACCTTCAACATTGATTGGCCCCCCGCCCC [Ter I]”, the activity on this sequence was 63.2 C (Tagg).
Still for that read-out and setting: the figure for “AATAAGTATGTTGTAACTAAAGTGGGGGCGGGG / TTATTCATACAACATTGATTTCACCCCCGCCCC [Ter B]” is 66.3 C (Tagg).
For “AATTAGTATGTTGTAACTAAAGTGGGGGCGGGG / TTAATCATACAACATTGATTTCACCCCCGCCCC [Ter A]”, the activity on this sequence was 66 C (Tagg).
Consider “ACGCAGTAAGTTGTAACTAATGCGGGGGCGGGG / TGCGTCATTCAACATTGATTACGCCCCCGCCCC [Ter J]”, for which the activity on this sequence was 61.8 C (Tagg).
“ATATAGGATGTTGTAACTAATATGGGGGCGGGG / TATATCCTACAACATTGATTATACCCCCGCCCC [Ter C]”: the activity on this sequence was 66.2 C (Tagg).
On the same count and under the same terms, the value for “CATTAGTATGTTGTAACTAAATGGGGGGCGGGG / GTAATCATACAACATTGATTTACCCCCCGCCCC [Ter D]” was 66.2 C (Tagg); that for “CCTTCGTATGTTGTAACGACGATGGGGGCGGGG / GGAAGCATACAACATTGCTGCTACCCCCGCCCC [Ter F]” was 58.6 C (Tagg).
As for “CGATCGTATGTTGTAACTATCTCGGGGGCGGGG / GCTAGCATACAACATTGATAGAGCCCCCGCCCC [Ter H]”, the activity on this sequence is 63.4 C (Tagg).
Turning to “GTCAAGGATGTTGTAACTAACCAGGGGGCGGGG / CAGTTCCTACAACATTGATTGGTCCCCCGCCCC [Ter G]”, the activity on this sequence was 64.9 C (Tagg).
Same read-out and setting: the figure for “TTAAAGTATGTTGTAACTAAGCAGGGGGCGGGG / AATTTCATACAACATTGATTCGTCCCCCGCCCC [Ter E]” is 65.1 C (Tagg).

For the next data set the target is unchanged. As to the kind of experiment: binding assay. To be noted: isothermal aggregation (kagg) at 50 C, 250 mM KCl; kagg increases with KD; purified recombinant protein; variant of TerB (GC-extended).
For the sequence “CTTTAGTTACAACATACTTATCACCCCGCCCCC / AATCAATGTTGTATGAATAGTGGGGCGGGGG [Ter-AG]”, the binding result is “binds”.
Same read-out and setting: the value for “CTTTAGTTACAACATACTTATCACCCCGCCCCC / ATCAATGTTGTATGAATAGTGGGGCGGGGG [Ter-AAG]” was “binds”.

Staying with this data set, now noted: isothermal aggregation (kagg) at 50 C, 250 mM KCl; ln kagg ratio correlates with ln KD; purified recombinant protein; variant of TerB (GC-extended).
“CCCCCGCCCCCAATACTTTAGTTACAACATACTTAT / GGGGGCGGGGGTTATGAAATCAATGTTGTAT [TT-lock]”: the binding result is recorded as “binds”.

For the origin of these results see US20110129935.
